Data taken from the supplement of paper PMC10849652.
The list shows a part of the results.

Chains of the proteins cited; added tags and fusions are not shown. Lines headed by an entry give the natural chain unless they say otherwise; changes in a name come on top.
UniProt O76003: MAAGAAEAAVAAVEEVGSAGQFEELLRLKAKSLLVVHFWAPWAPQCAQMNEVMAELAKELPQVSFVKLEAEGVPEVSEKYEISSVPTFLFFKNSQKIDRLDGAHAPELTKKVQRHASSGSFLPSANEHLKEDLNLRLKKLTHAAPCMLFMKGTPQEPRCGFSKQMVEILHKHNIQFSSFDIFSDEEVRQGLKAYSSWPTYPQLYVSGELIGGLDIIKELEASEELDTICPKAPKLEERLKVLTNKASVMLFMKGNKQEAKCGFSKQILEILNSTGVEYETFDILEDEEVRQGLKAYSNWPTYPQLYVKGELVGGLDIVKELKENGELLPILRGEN
UniProt Q86UL3: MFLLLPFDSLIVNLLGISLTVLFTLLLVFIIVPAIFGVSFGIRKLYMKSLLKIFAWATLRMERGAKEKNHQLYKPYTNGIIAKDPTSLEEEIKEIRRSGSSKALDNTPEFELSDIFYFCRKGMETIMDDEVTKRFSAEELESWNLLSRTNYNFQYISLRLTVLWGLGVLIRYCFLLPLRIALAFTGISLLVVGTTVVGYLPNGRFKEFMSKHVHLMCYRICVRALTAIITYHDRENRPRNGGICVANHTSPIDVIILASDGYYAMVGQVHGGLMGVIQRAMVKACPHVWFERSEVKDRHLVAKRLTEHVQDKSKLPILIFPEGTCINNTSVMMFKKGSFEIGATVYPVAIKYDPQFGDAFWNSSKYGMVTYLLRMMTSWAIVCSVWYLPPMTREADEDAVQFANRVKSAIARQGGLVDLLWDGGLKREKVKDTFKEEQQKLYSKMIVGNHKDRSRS
UniProt P16278: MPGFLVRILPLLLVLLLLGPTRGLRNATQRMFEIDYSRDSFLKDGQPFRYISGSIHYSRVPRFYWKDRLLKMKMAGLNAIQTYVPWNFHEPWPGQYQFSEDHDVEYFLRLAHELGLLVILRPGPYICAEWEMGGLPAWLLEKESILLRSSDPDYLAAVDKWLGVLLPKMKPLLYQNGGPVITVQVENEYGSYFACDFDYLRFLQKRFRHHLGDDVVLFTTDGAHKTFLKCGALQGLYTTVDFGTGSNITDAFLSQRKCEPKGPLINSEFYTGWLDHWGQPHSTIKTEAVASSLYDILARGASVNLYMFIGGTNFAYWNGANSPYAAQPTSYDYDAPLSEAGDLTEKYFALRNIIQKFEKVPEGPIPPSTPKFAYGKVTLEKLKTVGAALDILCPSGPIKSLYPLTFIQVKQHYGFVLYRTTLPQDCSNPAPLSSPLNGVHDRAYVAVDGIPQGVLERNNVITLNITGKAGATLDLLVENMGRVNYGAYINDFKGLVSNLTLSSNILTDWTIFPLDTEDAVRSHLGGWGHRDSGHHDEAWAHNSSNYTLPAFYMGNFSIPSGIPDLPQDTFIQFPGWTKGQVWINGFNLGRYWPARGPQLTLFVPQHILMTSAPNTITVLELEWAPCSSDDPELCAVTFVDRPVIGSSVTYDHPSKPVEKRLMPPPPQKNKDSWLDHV
UniProt P62879, whole entry, looked up: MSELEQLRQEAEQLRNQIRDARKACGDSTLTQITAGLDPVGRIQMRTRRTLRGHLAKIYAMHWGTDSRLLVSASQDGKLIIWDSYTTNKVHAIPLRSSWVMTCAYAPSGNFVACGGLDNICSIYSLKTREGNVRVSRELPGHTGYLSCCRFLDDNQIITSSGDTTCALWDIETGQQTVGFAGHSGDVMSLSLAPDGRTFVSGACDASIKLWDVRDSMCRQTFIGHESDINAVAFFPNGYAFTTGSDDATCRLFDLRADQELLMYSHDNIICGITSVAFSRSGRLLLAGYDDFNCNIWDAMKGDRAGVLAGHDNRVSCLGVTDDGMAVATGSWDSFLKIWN
UniProt O75420: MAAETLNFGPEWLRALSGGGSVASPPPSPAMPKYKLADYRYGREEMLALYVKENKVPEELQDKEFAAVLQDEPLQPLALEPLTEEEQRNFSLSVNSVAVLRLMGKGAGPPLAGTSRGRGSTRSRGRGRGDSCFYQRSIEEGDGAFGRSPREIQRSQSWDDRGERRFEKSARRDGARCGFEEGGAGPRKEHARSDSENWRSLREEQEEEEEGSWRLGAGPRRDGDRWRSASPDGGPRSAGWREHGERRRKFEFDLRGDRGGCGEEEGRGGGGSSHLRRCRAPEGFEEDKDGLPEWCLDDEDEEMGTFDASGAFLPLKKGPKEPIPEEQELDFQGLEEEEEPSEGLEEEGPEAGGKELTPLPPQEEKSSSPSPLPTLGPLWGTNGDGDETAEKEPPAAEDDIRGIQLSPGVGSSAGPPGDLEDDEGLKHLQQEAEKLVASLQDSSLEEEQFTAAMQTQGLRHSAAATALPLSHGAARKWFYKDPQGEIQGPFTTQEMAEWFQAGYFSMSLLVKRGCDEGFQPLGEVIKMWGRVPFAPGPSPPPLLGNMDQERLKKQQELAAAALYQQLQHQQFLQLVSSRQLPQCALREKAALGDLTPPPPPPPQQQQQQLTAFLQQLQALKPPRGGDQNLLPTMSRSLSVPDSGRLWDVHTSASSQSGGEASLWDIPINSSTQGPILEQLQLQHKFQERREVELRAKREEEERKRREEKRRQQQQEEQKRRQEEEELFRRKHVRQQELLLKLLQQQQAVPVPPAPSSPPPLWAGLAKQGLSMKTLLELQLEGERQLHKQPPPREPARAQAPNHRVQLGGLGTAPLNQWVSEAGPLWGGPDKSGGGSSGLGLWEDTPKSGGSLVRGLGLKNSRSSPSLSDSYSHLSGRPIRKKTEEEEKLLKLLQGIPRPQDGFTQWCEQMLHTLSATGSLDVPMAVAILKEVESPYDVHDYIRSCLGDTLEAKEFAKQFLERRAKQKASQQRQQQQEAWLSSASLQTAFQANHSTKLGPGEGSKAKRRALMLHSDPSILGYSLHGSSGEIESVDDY
UniProt P63218: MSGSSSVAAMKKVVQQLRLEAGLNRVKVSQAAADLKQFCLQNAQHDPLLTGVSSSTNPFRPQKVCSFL
UniProt Q9H4G4: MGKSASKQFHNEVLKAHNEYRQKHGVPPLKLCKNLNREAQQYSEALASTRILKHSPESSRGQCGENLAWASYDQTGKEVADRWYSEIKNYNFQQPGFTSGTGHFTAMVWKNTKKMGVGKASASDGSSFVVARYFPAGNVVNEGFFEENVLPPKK
UniProt P08754, whole entry, looked up: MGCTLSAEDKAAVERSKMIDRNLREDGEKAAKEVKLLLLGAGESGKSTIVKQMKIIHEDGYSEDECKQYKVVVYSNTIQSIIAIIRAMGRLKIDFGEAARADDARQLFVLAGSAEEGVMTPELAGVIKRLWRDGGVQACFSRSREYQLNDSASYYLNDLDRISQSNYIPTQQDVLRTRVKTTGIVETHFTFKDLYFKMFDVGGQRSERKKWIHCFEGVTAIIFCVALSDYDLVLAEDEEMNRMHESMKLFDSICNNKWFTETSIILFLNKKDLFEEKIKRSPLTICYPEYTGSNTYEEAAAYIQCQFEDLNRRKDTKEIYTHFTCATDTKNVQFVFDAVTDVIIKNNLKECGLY
UniProt Q9HCL2: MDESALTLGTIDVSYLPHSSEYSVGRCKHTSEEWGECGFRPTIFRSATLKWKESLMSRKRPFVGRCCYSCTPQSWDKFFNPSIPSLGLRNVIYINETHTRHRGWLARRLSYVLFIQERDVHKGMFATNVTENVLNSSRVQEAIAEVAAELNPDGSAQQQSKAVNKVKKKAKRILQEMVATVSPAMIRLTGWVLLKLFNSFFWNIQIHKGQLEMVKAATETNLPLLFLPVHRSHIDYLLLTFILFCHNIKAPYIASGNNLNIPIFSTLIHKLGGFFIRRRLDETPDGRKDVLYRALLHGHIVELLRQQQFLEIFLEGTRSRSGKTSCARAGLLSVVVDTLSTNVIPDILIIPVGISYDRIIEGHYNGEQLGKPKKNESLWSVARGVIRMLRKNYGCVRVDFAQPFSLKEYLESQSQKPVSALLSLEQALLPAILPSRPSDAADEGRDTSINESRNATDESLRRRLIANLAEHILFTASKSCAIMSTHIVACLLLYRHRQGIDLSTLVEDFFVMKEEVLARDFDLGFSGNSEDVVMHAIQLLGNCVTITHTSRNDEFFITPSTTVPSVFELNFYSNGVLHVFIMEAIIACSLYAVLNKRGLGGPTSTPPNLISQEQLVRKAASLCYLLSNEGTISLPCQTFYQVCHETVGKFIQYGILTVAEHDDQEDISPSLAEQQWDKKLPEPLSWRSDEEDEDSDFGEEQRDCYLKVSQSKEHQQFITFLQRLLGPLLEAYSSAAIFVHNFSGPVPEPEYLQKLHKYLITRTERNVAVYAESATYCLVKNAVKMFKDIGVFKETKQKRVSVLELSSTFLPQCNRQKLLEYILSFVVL
UniProt Q2TAP0: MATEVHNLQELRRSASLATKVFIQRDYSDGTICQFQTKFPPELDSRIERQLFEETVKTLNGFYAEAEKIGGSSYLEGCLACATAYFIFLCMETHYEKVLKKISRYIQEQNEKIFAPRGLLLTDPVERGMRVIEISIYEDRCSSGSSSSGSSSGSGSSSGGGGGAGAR

How the values were obtained:
Assay in all cases: log2 fold change, soluble protein after heating vs DMSO (PISA); higher = thermal stabilisation; K562 cells, 10 uM, 30 min; active = over 0.2 and 3.5 SD of the protein, either way, in both replicates (recomputed)
[1] = compound: CS(=O)(=O)c1ccc(-c2cnc(N)c(C(=O)Nc3ccccc3)n2)cc1
Method in brief: (§1)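 K562 cells at 2×10^6 cells/mL were treated for 30 min with 10 μM compound, and aliquots were heated for 3 min over 48°C-58°C before pooling. Extraction used PBS with 0.5% NP-40 at 4°C, and soluble protein was the supernatant after 21,000xg for 90 min, measured by TMTpro 16plex LC-MS/MS with channel sums equalised. Thermal stability values, relative to control samples and from duplicates, are log2 fold changes.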

[2] = compound: C[C@@H](Oc1cc(-c2cnn(C3CCNCC3)c2)cnc1N)c1c(Cl)ccc(F)c1Cl [crizotinib]
Method in brief: as §1

[3] = compound: C[C@@H]1COCCN1C2=NC(=NC(=C2)C3(CC3)S(=O)(=O)C)C4=C5C=CNC5=CC=C4
Method in brief: as §1

[4] = compound: C[C@H](C1=CC=C(C=C1)C(=O)NC2=C3C=CNC3=NC=C2)N
Method in brief: as §1

[5] = compound: Cc1cc(Nc2cc(CN3CCOCC3)c3nc(C)c(Cc4ccc(Cl)cc4F)n3n2)n[nH]1 [gandotinib]
Method in brief: as §1

[6] = compound: Cc1cc(SCc2sc(-c3ccc(C(F)(F)F)cc3)nc2C)ccc1OCC(=O)O
Method in brief: as §1

[7] = compound: Cc1ccc(-n2nc(C(C)(C)C)cc2NC(=O)Nc2ccc(OCCN3CCOCC3)c3ccccc23)cc1 [doramapimod]
Method in brief: as §1

[8] = compound: Cc1ccc(C(=O)N(CCCN)[C@@H](c2nc3cc(Cl)ccc3c(=O)n2Cc2ccccc2)C(C)C)cc1 [ispinesib]
Method in brief: as §1

[9] = compound: Cc1ccc(NC(=O)c2ccc(CN3CC[C@H](N(C)C)C3)c(C(F)(F)F)c2)cc1Nc1nccc(-c2cncnc2)n1 [bafetinib]
Method in brief: as §1

[10] = compound: Cc1cccc(CC(=O)N2CCc3c2ccc(-c2cn(C)c4ncnc(N)c24)c3F)n1
Method in brief: as §1

[11] = compound: Cc1cn(-c2cc(NC(=O)c3ccc(C)c(Nc4nccc(-c5cccnc5)n4)c3)cc(C(F)(F)F)c2)cn1 [nilotinib]
Method in brief: as §1

[12] = compound: Cc1nc(Nc2n[nH]c3c2CN(C(=O)N[C@H](CN(C)C)c2ccccc2)C3(C)C)c2sccc2n1
Method in brief: as §1

[13] = compound: Cc1nc(Nc2ncc(C(=O)Nc3c(C)cccc3Cl)s2)cc(N2CCN(CCO)CC2)n1 [dasatinib]
Method in brief: as §1

[14] = compound: Cc1ncc(-c2ccnc(Nc3ccc(S(C)(=O)=O)cc3)n2)n1C(C)C
Method in brief: as §1

[15] = compound: Cn1cc(-c2ccc3c(c2)CCN3C(=O)Cc2cccc(C(F)(F)F)c2)c2c(N)ncnc21
Method in brief: as §1

[16] = compound: Cn1cc(-c2ccc3nnc(C(F)(F)c4ccc5ncccc5c4)n3n2)cn1
Method in brief: as §1

[17] = compound: Cn1cncc1[C@@](N)(c1ccc(Cl)cc1)c1ccc2c(c1)c(-c1cccc(Cl)c1)cc(=O)n2C [tipifarnib]
Method in brief: as §1

[18] = compound: FC(F)(F)c1ccc(/C=C/c2nc(COc3ccc(CCCCn4ccnn4)cc3)co2)cc1 [mubritinib]
Method in brief: as §1

[19] = compound: Cc1cc(Nc2cc(N3CCN(C)CC3)nc(Sc3ccc(NC(=O)C4CC4)cc3)n2)n[nH]1 [tozasertib]
Method in brief: as §1

[20] = compound: C[C@H](Nc1ncnc2nc[nH]c12)c1cc2cccc(Cl)c2c(=O)n1-c1ccccc1 [duvelisib]
Method in brief: as §1

Measured: log2 fold change

GLRX3 (UniProt O76003)
inactive: [1] 0.03 | [2] 0.098 | [3] 0.06 | [4] -0.068 | [5] -0.094 | [6] 0.041 | [7] -0.075 | [8] 0.068 | [9] -0.04 | [10] 0.025 | [11] -0.048 | [12] -0.022 | [13] -0.054 | [14] 0.015 | [15] -0.015 | [16] -0.014 | [17] -0.082 | [18] -0.004

GPAT4 (UniProt Q86UL3)
active: [2] 0.287
inactive: [1] 0.15 | [3] 0.066 | [4] -0.071 | [5] -0.009 | [6] 0.061 | [7] -0.063 | [8] 0.194 | [9] -0.138 | [10] -0.028 | [11] -0.047 | [12] 0.049 | [13] -0.024 | [14] -0.009 | [15] 0.093 | [16] -0.018 | [17] -0.069 | [18] -0.008

GLB1 (UniProt P16278)
active: [2] -0.221 | [8] -0.255 | [9] -0.418
inactive: [1] 0.024 | [3] -0.074 | [4] 0.007 | [5] 0 | [6] -0.004 | [7] 0.013 | [10] -0.009 | [11] 0.013 | [12] 0.017 | [13] 0.061 | [14] 0.004 | [15] -0.006 | [16] 0.016 | [17] 0.039 | [18] -0.009

GNB2 (UniProt P62879)
inactive: [1] 0.084 | [2] 0.134 | [3] 0.024 | [4] -0.13 | [5] -0.095 | [6] 0 | [7] 0.009 | [8] 0.062 | [9] 0.12 | [10] -0.002 | [11] 0.077 | [12] -0.018 | [13] 0.057 | [14] -0.012 | [15] 0.028 | [16] -0.032 | [17] 0.003 | [18] -0.028

Quoted at random: 2 records from the list, in no set order.
GLRX3 (UniProt O76003)
inactive: [1] 0.03 | [2] 0.098 | [3] 0.06 | [4] -0.068 | [5] -0.094 | [6] 0.041 | [7] -0.075 | [8] 0.068 | [9] -0.04 | [10] 0.025 | [11] -0.048 | [12] -0.022 | [13] -0.054 | [14] 0.015 | [15] -0.015 | [16] -0.014 | [17] -0.082 | [18] -0.004

GLB1 (UniProt P16278)
active: [2] -0.221 | [8] -0.255 | [9] -0.418
inactive: [1] 0.024 | [3] -0.074 | [4] 0.007 | [5] 0 | [6] -0.004 | [7] 0.013 | [10] -0.009 | [11] 0.013 | [12] 0.017 | [13] 0.061 | [14] 0.004 | [15] -0.006 | [16] 0.016 | [17] 0.039 | [18] -0.009

Going on with the list.

GIGYF1 (UniProt O75420)
inactive: [1] 0.017 | [2] 0.045 | [3] -0.062 | [4] 0.119 | [5] 0.098 | [7] -0.075 | [8] -0.013 | [10] 0.132 | [15] -0.108 | [16] -0.23 | [17] -0.058

GNG5 (UniProt P63218)
inactive: [1] 0.014 | [2] 0.094 | [3] 0.207 | [4] -0.13 | [5] 0.055 | [6] -0.071 | [7] 0.008 | [8] 0.216 | [9] 0.013 | [10] -0.048 | [11] 0.12 | [12] 0.023 | [13] 0.06 | [14] -0.051 | [15] 0.027 | [16] 0.169 | [17] 0.027 | [18] 0.039

GLIPR2 (UniProt Q9H4G4)
inactive: [1] 0.034 | [2] -0.243 | [3] -0.018 | [4] -0.064 | [5] 0.157 | [6] 0.007 | [7] -0.01 | [9] -0.101 | [10] -0.024 | [13] -0.059 | [15] 0.031 | [16] 0.087 | [17] 0.019 | [18] 0.054
active: [8] -0.459

GNAI3 (UniProt P08754)
inactive: [1] 0.121 | [2] 0.103 | [3] -0.122 | [4] 0.003 | [5] 0.039 | [6] -0.014 | [7] 0.036 | [8] -0.008 | [9] 0.066 | [10] 0.033 | [11] 0.185 | [12] 0.008 | [13] 0.086 | [14] -0.004 | [15] -0.017 | [16] 0.018 | [17] -0.008 | [18] -0.032

GPAM (UniProt Q9HCL2)
inactive: [1] 0.006 | [2] 0.144 | [3] -0.001 | [5] 0.123 | [19] 0.107 | [7] 0.253 | [8] -0.083 | [10] -0.137 | [11] 0.154 | [12] 0.157 | [14] -0.219 | [16] -0.035 | [17] -0.047

GOLGA7B (UniProt Q2TAP0)
inactive: [1] 0.052 | [2] 0.088 | [4] -0.08 | [20] 0.058 | [19] -0.061 | [6] -0.007 | [7] 0 | [8] -0.007 | [9] -0.044 | [11] -0.012 | [12] -0.021 | [13] 0.067 | [14] 0.054 | [15] -0.002 | [16] 0.054 | [17] -0.029 | [18] 0.052
